For this assay, the target named is bZIP52-GFP (Arabidopsis thaliana). As to the kind of experiment: affinity purification with mass spectrometry; GFP-Trap agarose beads on protein extracts of 7-day-old A. thaliana seedlings expressing bZIP18-GFP or bZIP52-GFP; bound proteins identified by LC-MS/MS.

No constants are given. Whether binding was seen depends on the method and setting. Binding seen in cells or lysates may run through a third protein. A yes stands for co-enrichment or nearness to the bait. Other partners may have been found.

B1: 14–3–3 ε (GRF10) (protein, UniProt P48347 1-254)
chain: MENEREKQVYLAKLSEQTERYDEMVEAMKKVAQLDVELTVEERNLVSVGYKNVIGARRASWRILSSIEQKEESKGNDENVKRLKNYRKRVEDELAKVCNDILSVIDKHLIPSSNAVESTVFFYKMKGDYYRYLAEFSSGAERKEAADQSLEAYKAAVAAAENGLAPTHPVRLGLALNFSVFYYEILNSPESACQLAKQAFDDAIAELDSLNEESYKDSTLIMQLLRDNLTLWTSDLNEEGDERTKGADEPQDEN
Regarding B1, the binding entry is given as “binds”.

(Values after PMC7830406.)
